{"source": "paper PMC5494602", "molecular_target": "T1, Flag-IKKε (UniProt Q14164)", "T1 sequence": "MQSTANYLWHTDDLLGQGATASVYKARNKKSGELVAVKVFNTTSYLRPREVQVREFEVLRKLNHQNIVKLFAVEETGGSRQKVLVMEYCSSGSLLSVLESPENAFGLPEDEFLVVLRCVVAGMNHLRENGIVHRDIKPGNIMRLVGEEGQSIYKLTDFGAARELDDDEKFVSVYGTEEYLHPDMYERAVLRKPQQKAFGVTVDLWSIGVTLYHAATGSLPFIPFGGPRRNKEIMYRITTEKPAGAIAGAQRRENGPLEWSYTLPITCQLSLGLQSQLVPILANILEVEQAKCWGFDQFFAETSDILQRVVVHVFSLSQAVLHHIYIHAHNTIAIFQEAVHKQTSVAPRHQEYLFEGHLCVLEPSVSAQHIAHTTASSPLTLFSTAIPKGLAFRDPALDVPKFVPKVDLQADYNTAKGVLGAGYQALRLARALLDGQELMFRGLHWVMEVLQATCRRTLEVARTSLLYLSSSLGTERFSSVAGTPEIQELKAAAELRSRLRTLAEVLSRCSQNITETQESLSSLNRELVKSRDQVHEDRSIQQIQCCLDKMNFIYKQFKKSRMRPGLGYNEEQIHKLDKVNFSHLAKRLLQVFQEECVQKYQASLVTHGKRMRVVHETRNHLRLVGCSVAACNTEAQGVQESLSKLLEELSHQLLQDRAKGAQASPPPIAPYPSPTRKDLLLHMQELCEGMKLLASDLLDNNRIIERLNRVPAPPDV", "test": "co-IP", "note": "Results are given in words; binding and its absence hold for the method and conditions named. Binding seen in cells or lysates may run through a third protein. Some binding calls cover weakened binding; strength is not graded here. Tags and fused reporters may be left off the sequences shown."}
{"substance": "HA-MAVS (mitochondrial antiviral signaling protein, full length) (from UniProt Q7Z434-1 1-540)", "values": [{"measurement": "binding", "result": "binds"}]}
